Results are given in words; binding and its absence hold for the method and conditions named. In cells and extracts the contact can be indirect. These calls come from enrichment with a bait or labelling near it, and not all partners need be listed.
Target: Flag-pVHL (UniProt P40337)
Test: affinity purification with mass spectrometry; Flag pull-down from HEK293T cells transfected with empty or Flag-pVHL vector for 24 hours; gradient gel, silver staining, bands excised for MS (LTQ Orbitrap Elite)

The chains behind the UniProt entries cited, without tags or fusion partners.
UniProt P40337: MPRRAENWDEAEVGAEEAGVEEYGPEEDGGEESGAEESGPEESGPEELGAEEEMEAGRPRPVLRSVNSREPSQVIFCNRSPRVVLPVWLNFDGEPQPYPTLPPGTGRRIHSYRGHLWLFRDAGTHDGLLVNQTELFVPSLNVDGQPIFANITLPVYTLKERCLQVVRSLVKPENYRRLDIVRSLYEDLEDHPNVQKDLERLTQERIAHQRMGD
UniProt Q93008: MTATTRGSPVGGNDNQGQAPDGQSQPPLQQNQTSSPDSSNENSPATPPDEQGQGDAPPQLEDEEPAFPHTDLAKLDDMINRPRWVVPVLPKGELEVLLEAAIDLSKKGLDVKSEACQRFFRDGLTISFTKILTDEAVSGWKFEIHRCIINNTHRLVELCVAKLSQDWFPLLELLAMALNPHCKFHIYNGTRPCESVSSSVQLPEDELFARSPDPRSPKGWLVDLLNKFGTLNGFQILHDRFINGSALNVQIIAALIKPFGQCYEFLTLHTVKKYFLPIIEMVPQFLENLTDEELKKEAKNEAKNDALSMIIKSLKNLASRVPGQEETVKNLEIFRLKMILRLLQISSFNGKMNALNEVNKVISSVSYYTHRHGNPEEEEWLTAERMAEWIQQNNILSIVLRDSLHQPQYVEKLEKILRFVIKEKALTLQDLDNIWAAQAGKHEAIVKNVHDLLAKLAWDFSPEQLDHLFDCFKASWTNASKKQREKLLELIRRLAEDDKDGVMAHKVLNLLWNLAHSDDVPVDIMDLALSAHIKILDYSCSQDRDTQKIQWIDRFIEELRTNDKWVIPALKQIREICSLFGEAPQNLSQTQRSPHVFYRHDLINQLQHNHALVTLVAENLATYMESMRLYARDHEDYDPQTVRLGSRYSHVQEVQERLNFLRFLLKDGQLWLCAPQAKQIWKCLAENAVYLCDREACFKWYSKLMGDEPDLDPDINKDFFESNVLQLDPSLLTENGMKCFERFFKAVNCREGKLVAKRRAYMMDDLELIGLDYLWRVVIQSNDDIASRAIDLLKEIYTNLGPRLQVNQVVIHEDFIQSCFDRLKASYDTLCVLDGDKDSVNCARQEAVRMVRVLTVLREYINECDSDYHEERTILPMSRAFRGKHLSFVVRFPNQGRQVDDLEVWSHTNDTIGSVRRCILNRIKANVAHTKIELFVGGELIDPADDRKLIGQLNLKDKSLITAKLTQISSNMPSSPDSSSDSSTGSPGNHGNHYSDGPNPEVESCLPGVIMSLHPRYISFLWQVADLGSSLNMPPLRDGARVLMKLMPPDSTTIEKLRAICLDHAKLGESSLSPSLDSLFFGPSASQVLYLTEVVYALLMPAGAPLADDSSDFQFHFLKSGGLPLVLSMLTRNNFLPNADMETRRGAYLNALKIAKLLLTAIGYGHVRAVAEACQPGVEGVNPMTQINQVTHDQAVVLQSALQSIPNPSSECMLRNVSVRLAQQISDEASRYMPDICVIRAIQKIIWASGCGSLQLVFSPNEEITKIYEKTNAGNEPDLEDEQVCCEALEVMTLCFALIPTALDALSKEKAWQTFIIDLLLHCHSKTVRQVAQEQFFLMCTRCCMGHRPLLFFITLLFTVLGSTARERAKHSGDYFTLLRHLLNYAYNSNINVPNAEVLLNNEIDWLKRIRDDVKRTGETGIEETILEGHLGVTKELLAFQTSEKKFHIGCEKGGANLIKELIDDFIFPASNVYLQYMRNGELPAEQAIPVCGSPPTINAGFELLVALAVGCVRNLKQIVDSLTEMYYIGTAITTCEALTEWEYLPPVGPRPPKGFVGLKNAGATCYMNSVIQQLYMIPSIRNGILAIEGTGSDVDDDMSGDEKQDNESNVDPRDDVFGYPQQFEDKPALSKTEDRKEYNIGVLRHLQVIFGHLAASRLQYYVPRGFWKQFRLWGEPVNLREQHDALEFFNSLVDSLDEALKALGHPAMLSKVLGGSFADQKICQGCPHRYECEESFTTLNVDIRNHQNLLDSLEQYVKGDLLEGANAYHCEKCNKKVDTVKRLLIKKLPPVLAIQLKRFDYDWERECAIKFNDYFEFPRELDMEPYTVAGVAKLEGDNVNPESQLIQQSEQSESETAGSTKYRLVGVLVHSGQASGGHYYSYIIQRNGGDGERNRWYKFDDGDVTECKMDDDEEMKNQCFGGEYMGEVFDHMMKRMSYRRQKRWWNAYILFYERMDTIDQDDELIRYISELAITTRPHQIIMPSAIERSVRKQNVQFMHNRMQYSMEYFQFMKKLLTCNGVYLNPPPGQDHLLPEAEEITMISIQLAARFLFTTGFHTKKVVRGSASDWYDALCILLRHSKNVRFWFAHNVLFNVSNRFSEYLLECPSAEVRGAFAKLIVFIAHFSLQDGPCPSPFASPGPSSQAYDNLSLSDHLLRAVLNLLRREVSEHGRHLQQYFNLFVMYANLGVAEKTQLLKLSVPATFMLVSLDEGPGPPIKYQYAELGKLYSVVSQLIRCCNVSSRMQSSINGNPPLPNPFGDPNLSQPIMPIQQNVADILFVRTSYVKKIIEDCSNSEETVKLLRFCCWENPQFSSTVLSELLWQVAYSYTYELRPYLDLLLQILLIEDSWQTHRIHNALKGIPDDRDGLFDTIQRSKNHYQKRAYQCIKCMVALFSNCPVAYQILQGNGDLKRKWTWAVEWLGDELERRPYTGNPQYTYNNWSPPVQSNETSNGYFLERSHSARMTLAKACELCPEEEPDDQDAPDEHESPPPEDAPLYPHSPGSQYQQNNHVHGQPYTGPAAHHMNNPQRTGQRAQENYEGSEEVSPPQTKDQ

Substance | binding
endogenous HUWE1 (HEK293T) (from UniProt Q7Z6Z7 1-4374) (enzyme) | binds
endogenous USP9X (from UniProt Q93008 1-2554) (enzyme) | binds

Source: paper PMC5312400
